Source: the supplement of paper PMC6078165
Values are relative to the signal before dosing, not to a vehicle control; the signal also falls without drug.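 Cells used are triple-negative breast cancer lines, either basal-like or mesenchymal-like, grown in the absence of fibroblasts. Lower red signal means mitochondrial integrity is lost, a surrogate for apoptosis.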

Columns and labels:
Assay in all cases: relative JC-1 red fluorescence (viability) vs pre-drug, monoculture (fraction); higher = more viable cancer cells
Conditions in all cases: coculture fibroblast: none (monoculture)
[1] = test system: BT20
Description: (§1)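 JC-1 labelled TNBC cells grown in monoculture (density kept equal with unlabelled cancer cells) in 384-well plates in FluoroBrite medium, treated with one of 42 anticancer drugs at 0.1, 1, 10 or 100 uM. JC-1 red fluorescence (mitochondrial integrity, surrogate of apoptotic death) was read by plate reader every 8 h for 72 h. Values are normalised to each well's pre-drug value, with background from alamethicin. The stock of one drug was tenfold lower, so its dose labels may be too high. Monoculture values are repeated alongside each fibroblast plate and are averaged here.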

[2] = test system: MDAMB231
Description: as §1

[3] = test system: MDAMB468
Description: as §1

[4] = test system: MDAMB436
Description: as §1

Nc1ncn([C@@H]2O[C@H](CO)[C@@H](O)[C@H]2O)c(=O)n1 [Azacitidine]
relative JC-1 red fluorescence
Conditions	8 h	16 h	24 h	32 h	40 h	48 h	56 h	64 h	72 h
[1], 0.1 µM	0.92	0.863	0.853	0.789	0.766	0.756	0.744	0.75	0.745
[1], 1 µM	0.9351	0.846	0.8071	0.7333	0.695	0.6768	0.6618	0.645	0.638
[1], 10 µM	0.9549	0.859	0.842	0.781	0.752	0.727	0.689	0.67	0.654
[1], 100 µM	0.941	0.826	0.784	0.732	0.723	0.702	0.689	0.678	0.666
[2], 0.1 µM	0.738	0.688	0.772	0.662	0.632	0.664	0.652	0.713	0.726
[2], 1 µM	0.739	0.6974	0.684	0.636	0.599	0.601	0.58	0.618	0.615
[2], 10 µM	0.819	0.702	0.838	0.727	0.707	0.716	0.717	0.772	0.781
[2], 100 µM	0.7204	0.723	0.621	0.687	0.651	0.615	0.584	0.584	0.564
[3], 0.1 µM	0.8012	0.7817	0.795	0.764	0.743	0.757	0.755	0.757	0.768
[3], 1 µM	0.913	0.844	0.783	0.721	0.673	0.655	0.631	0.61	0.602
[3], 10 µM	0.832	0.7075	0.675	0.612	0.583	0.563	0.519	0.511	0.505
[3], 100 µM	0.854	0.7481	0.644	0.549	0.5079	0.479	0.4454	0.406	0.387
[4], 0.1 µM	0.859	0.8881	0.9716	0.9908	0.871	0.887	0.792	0.835	0.798
[4], 1 µM	0.855	0.7273	0.749	0.703	0.694	0.683	0.686	0.692	0.694
[4], 10 µM	0.874	0.79	0.823	0.785	0.792	0.798	0.807	0.808	0.827
[4], 100 µM	0.8686	0.762	0.7901	0.7531	0.717	0.704	0.703	0.695	0.691

O=NN(CCCl)C(=O)NCCCl [Carmustine]
relative JC-1 red fluorescence
Conditions	8 h	16 h	24 h	32 h	40 h	48 h	56 h	64 h	72 h
[1], 0.1 µM	0.93691	0.8331	0.764	0.692	0.633	0.613	0.585	0.574	0.568
[1], 1 µM	0.8935	0.7894	0.755	0.677	0.63	0.605	0.574	0.56	0.541
[1], 10 µM	0.9491	0.852	0.812	0.752	0.72	0.702	0.668	0.654	0.645
[1], 100 µM	0.896	0.864	0.889	0.833	0.827	0.828	0.82	0.823	0.835
[2], 0.1 µM	0.693	0.66	0.5773	0.555	0.501	0.479	0.4421	0.4501	0.4365
[2], 1 µM	0.6968	0.6485	0.6234	0.566	0.525	0.513	0.49	0.509	0.5103
[2], 10 µM	0.736	0.718	0.612	0.606	0.567	0.553	0.518	0.531	0.529
[2], 100 µM	0.6569	0.641	0.597	0.5653	0.519	0.497	0.473	0.499	0.512
[3], 0.1 µM	0.898	0.835	0.764	0.717	0.671	0.647	0.608	0.586	0.579
[3], 1 µM	0.8884	0.773	0.79254	0.756	0.72	0.718	0.708	0.706	0.685
[3], 10 µM	0.89	0.831	0.777	0.7149	0.678	0.66	0.629	0.605	0.59
[3], 100 µM	0.846	0.828	0.828	0.779	0.763	0.763	0.734	0.734	0.723
[4], 0.1 µM	0.831	0.7314	0.71	0.648	0.637	0.6171	0.607	0.601	0.6034
[4], 1 µM	0.7986	0.7753	0.805	0.759	0.7819	0.781	0.785	0.795	0.805
[4], 10 µM	0.8623	0.76	0.73819	0.6834	0.66532	0.646	0.6309	0.6201	0.621
[4], 100 µM	0.771	0.8134	0.8472	0.8159	0.8364	0.8508	0.858	0.8804	0.9086
